According to PubChem BioAssay AID1439 (NMMLSC, 2008):
The whole screen tested about 220,000 compounds, of which about 770 (0.35%) were called active. Inconclusive means that the source gave no clear call. Such entries were picked first, then a sample of the others. No stated cut-off is given here; in the data, active means binding response below about 49% or above about 150%; inconclusive means no clear call, values can overlap the other calls; inactive means in between.

Chains of the proteins cited; added tags and fusions are not shown.
UniProt P09471, whole entry, looked up: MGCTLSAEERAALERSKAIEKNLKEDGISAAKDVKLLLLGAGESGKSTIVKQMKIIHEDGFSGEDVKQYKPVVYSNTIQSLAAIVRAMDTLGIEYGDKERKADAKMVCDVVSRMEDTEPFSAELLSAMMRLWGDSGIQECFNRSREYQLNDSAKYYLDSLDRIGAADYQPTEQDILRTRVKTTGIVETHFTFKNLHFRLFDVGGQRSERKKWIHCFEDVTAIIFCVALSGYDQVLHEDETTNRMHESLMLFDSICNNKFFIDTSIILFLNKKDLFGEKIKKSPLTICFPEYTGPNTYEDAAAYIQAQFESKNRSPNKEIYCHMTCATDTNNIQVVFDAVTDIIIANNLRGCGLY

What follows are compounds tested against Guanine nucleotide-binding protein G(o) subunit alpha (Homo sapiens) (UniProt P09471) (assay: RGS7-Galphao binding modulators, primary screen, biochemical, multiplexed bead flow cytometry (AID 1439;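 further: fluorescent Galphao held in activated GDP-AlF4 state binding bead-coupled RGS7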)). Details: at 10 µM, actives lie on both sides.

SMILES | binding response (% of control)
Cn1c(=O)c2c(nc(Oc3ccc4c(c3)OCO4)n2Cc2ccc(Br)cc2)n(C)c1=O | inconclusive: 62%
CCOP(=O)(OCC)c1nc(-c2ccc(Cl)cc2Cl)oc1N1CCCCC1 | inconclusive: 107%
Cc1nc([N+](=O)[O-])cn1Cc1cccc([N+](=O)[O-])c1 | inactive: 100%
COc1ccc(-c2nc3ccccc3c(=O)n2CCOc2ccccc2C)cc1 | inactive: 100%
CC(C)NCC(=O)C12CC3CC(CC(C3)C1)C2 | inconclusive: 60.9%
O=C(N/N=C/c1ccc([N+](=O)[O-])cc1)c1cc(-c2ccc3c(c2)OCO3)n[nH]1 | inconclusive: 141%
Cc1nn(C)c(C)c1/C=N/N=C1\CCC2C3CCc4cc(O)ccc4C3CCC12C (configuration not stated) | inactive: 104%
COc1cc(/C=N/NC(=O)Cn2cnc3ccccc3c2=O)ccc1O | inconclusive: 139%
CCOc1cc(/C=N/NC(=O)C(=O)Nc2cc(Cl)ccc2C)ccc1O | inconclusive: 83.9%
CCn1c(O)c(C#N)c(C)cc1=O | inconclusive: 87.6%
Cc1ccc(NC(=S)N/N=C/c2cccn2Cc2ccccc2F)cc1 | inconclusive: 105%
COc1ccc(Cn2c(C)nnc2-c2cnn(C)c2N)cc1 | inactive: 97.8%
COc1c2ccccc2c(OC)c2ccccc12 | inactive: 96.6%
Cc1onc(-c2ccccc2)c1C(=O)O/N=C(\N)c1ccc([N+](=O)[O-])o1 | inconclusive: 121%
O=C(C1=NNCC1c1ccccc1)C1OC1c1ccccc1 (configuration not stated) | inconclusive: 110%
CSCCC1NC(=O)N(CC(=O)Nc2ccc(Br)cc2Br)C1=O (configuration not stated) | inconclusive: 61.5%
COc1cc(/C=N/NC(=O)Cc2csc(N3CCOCC3)n2)cc(OC)c1O | inconclusive: 119%
CCCCCNC(=O)Cc1cc(=O)[nH]c(=O)[nH]1 | inactive: 98.9%
CC(=O)C1C(c2ccc([N+](=O)[O-])cc2)c2c(noc2C)CC1(C)O (configuration not stated) | inconclusive: 63.1%

SMILES | binding response (% of control)
COc1ccc([C@H]2C=C3CN(C(=O)OC(C)(C)C)S(=O)(=O)[C@H]3C[C@H]2OC(=O)c2ccc(C(F)(F)F)cc2)cc1 | inconclusive: 73.1%
O=C(c1ccco1)c1coc2c1cc(O)c1ccccc12 | inactive: 106%
COC(C[C@H]1O[C@H]1[C@H](O)COCc1ccccc1)OC | inconclusive: 98.4%
CCC(C)[C@H]1CNC(=S)N1CCc1cccc2ccccc12 (some centres not stated) | inconclusive: 106%
CC1CCN(S(=O)(=O)c2cc(C(=O)N3CCN(c4ncccn4)CC3)ccc2Br)CC1 | inactive: 101%
O=C(O)c1cccc(NS(=O)(=O)c2ccc3c(c2)C(=O)c2ccccc2C3=O)c1 | inconclusive: 203%
Nn1c(SCc2cccc(F)c2)nnc1-c1ccncc1 | inconclusive: 169%
CCCNc1nc(C)cc(-c2cc(C(=O)NC3CCCC3)on2)n1 | inconclusive: 100%
O=C(COC(=O)/C=C/c1ccccc1)NCc1ccccc1Cl | inactive: 104%
COc1ccc2c(c1)nc(NCCCO)n2Cc1ccccc1 | inconclusive: 123%
CC(C)(C)C(=O)NC(=S)Nc1ccc(S(=O)(=O)Nc2nccs2)cc1 | inconclusive: 78.7%
CC1N(O)C(C)(C)C(c2ccccc2)=[N+]1[O-] (configuration not stated) | inactive: 83.9%
CCOC(=O)c1c(CSc2ccccc2)n(C)c2cc(Br)c(O)c(CN(C)C)c12 | inconclusive: 104%
CC(C)(C)C(=O)NC(=S)NNC(=O)c1ccc(Cl)cc1Cl | inactive: 102%
O=C(CC(c1ccccc1)c1ccco1)Nc1nccs1 (configuration not stated) | inactive: 98.9%
COC(=O)c1ccc(C23CC4(C2)[C@H](CN(Cc2ccc(C(F)(F)F)cc2)[C@@H]4c2ccccc2)C3c2ccc(C(F)(F)F)cc2)cc1 (some centres not stated) | inconclusive: 118%
Nn1c(SCc2ccc(F)cc2)nnc1-c1ccccn1 | inconclusive: 84.6%
COc1cc(/C=N/Nc2nc(=O)[nH]nc2C)cc([N+](=O)[O-])c1O | inconclusive: 101%
N#Cc1cnn(-c2ccc(F)cc2)c1N | inconclusive: 112%

SMILES | binding response (% of control)
Cc1c(NC(=O)CC2NC(=O)NC2=O)c(=O)n(-c2ccccc2)n1C (configuration not stated) | inactive: 97.9%
O=C(Nc1ccc(-n2cnnn2)cc1)c1cn2ccccc2n1 | inconclusive: 116%
COc1cc(C(=O)Nc2cc(C(F)(F)F)ccc2-n2cncn2)cc(OC)c1OC | inconclusive: 103%
O=C(/C(=C(\O)c1ccccc1)c1nc2ccccc2[nH]1)c1ccccc1 | inconclusive: 97.5%
CCCCNC(=O)Nc1nc2ccc(CC)cc2s1 | inactive: 103%
O=C(N[C@@H](Cc1ccc(O)cc1)C(=O)O)c1ccc(C(F)(F)F)cc1 | active: 152% [activator]
COc1ccc(CC(=O)OCC(=O)NCc2ccccc2Cl)cc1 | inconclusive: 95.1%
Nc1nnc(CC(=O)N/N=C/c2ccc([N+](=O)[O-])cc2)s1 | inconclusive: 112%
COc1ccc(/C=N/OCC(=O)N2CCCC2)c(OC)c1 | inactive: 95.5%
CCCNC(=O)c1ccc2c(=O)c(O)c(-c3ccsc3)[nH]c2c1 | inconclusive: 32.3%
Cc1ccc2[nH]c3c(c2c1)CCN1C(=O)OC(C)(C)C31C (configuration not stated) | inconclusive: 99.2%
O=C(N/N=C/c1nn(-c2ccccc2)cc1-c1ccc(Cl)cc1)c1ccncc1 | inactive: 95%
COc1ccc(Oc2cccc(Cl)c2CNC(=O)CC(C)(C)CC(=O)O)cc1 | inconclusive: 120%
CCN1CCN(Cc2ccc(NC(=O)c3ccc(C)c(NC(=O)c4ccc5n[nH]nc5c4)c3)cc2C(F)(F)F)CC1 | inconclusive: 86.5%
Cc1cccc(-c2nc(CSCC(=O)NCCCN3CCOCC3)c(C)o2)c1 | inactive: 103%
Cc1ccccc1/C=C/C12NC(=O)CN1c1ccccc1C2(C)C (configuration not stated) | inconclusive: 127%
O=C(O)/C=C\C(=O)Nc1ccc(F)c(F)c1F | inconclusive: 116%
CCOC(=O)c1sc(=S)n(CC)c1NC(=O)c1ccccc1C | inconclusive: 97.1%
Cc1ccc(S(=O)(=O)N2CCC(C)CC2)c([N+](=O)[O-])c1 | inconclusive: 103%

An excerpt of these results, as tab-separated lines.
SMILES	binding response (% of control)
COc1ccc(Oc2cccc(Cl)c2CNC(=O)CC(C)(C)CC(=O)O)cc1	inconclusive: 120%
CCN1CCN(Cc2ccc(NC(=O)c3ccc(C)c(NC(=O)c4ccc5n[nH]nc5c4)c3)cc2C(F)(F)F)CC1	inconclusive: 86.5%
Cc1cccc(-c2nc(CSCC(=O)NCCCN3CCOCC3)c(C)o2)c1	inactive: 103%
Cc1ccccc1/C=C/C12NC(=O)CN1c1ccccc1C2(C)C (configuration not stated)	inconclusive: 127%
O=C(O)/C=C\C(=O)Nc1ccc(F)c(F)c1F	inconclusive: 116%
